Source: article PMC7696408

B1: SLC5A6 (protein, UniProt Q9Y289 1-635)
chain: MSVGVSTSAPLSPTSGTSVGMSTFSIMDYVVFVLLLVLSLAIGLYHACRGWGRHTVGELLMADRKMGCLPVALSLLATFQSAVAILGVPSEIYRFGTQYWFLGCCYFLGLLIPAHIFIPVFYRLHLTSAYEYLELRFNKTVRVCGTVTFIFQMVIYMGVVLYAPSLALNAVTGFDLWLSVLALGIVCTVYTALGGLKAVIWTDVFQTLVMFLGQLAVIIVGSAKVGGLGRVWAVASQHGRISGFELDPDPFVRHTFWTLAFGGVFMMLSLYGVNQAQVQRYLSSRTEKAAVLSCYAVFPFQQVSLCVGCLIGLVMFAYYQEYPMSIQQAQAAPDQFVLYFVMDLLKGLPGLPGLFIACLFSGSLSTISSAFNSLATVTMEDLIRPWFPEFSEARAIMLSRGLAFGYGLLCLGMAYISSQMGPVLQAAISIFGMVGGPLLGLFCLGMFFPCANPPGAVVGLLAGLVMAFWIGIGSIVTSMGSSMPPSPSNGSSFSLPTNLTVATVTTLMPLTTFSKPTGLQRFYSLSYLWYSAHNSTTVIVVGLIVSLLTGRMRGRSLNPATIYPVLPKLLSLLPLSCQKRLHCRSYGQDHLDTGLFPEKPRNGVLGDSRDKEAMALDGTAYQGSSSTCILQETSL
B2: SLC35A2 (protein, UniProt P78381 1-396)
chain: MAAVGAGGSTAAPGPGAVSAGALEPGTASAAHRRLKYISLAVLVVQNASLILSIRYARTLPGDRFFATTAVVMAEVLKGLTCLLLLFAQKRGNVKHLVLFLHEAVLVQYVDTLKLAVPSLIYTLQNNLQYVAISNLPAATFQVTYQLKILTTALFSVLMLNRSLSRLQWASLLLLFTGVAIVQAQQAGGGGPRPLDQNPGAGLAAVVASCLSSGFAGVYFEKILKGSSGSVWLRNLQLGLFGTALGLVGLWWAEGTAVATRGFFFGYTPAVWGVVLNQAFGGLLVAVVVKYADNILKGFATSLSIVLSTVASIRLFGFHVDPLFALGAGLVIGAVYLYSLPRGAAKAIASASASASGPCVHQQPPGQPPPPQLSSHRGDLITEPFLPKLLTKVKGS
B3: ZDHHC13 (protein, UniProt Q8IUH4 1-622)
chain: MEGPGLGSQCRNHSHGPHPPGFGRYGICAHENKELANAREALPLIEDSSNCDIVKATQYGIFERCKELVEAGYDVRQPDKENVSLLHWAAINNRLDLVKFYISKGAVVDQLGGDLNSTPLHWAIRQGHLPMVILLLQHGADPTLIDGEGFSSIHLAVLFQHMPIIAYLISKGQSVNMTDVNGQTPLMLSAHKVIGPEPTGFLLKFNPSLNVVDKIHQNTPLHWAVAAGNVNAVDKLLEAGSSLDIQNVKGETPLDMALQNKNQLIIHMLKTEAKMRANQKFRLWRWLQKCELFLLLMLSVITMWAIGYILDFNSDSWLLKGCLLVTLFFLTSLFPRFLVGYKNLVYLPTAFLLSSVFWIFMTWFILFFPDLAGAPFYFSFIFSIVAFLYFFYKTWATDPGFTKASEEEKKVNIITLAETGSLDFRTFCTSCLIRKPLRSLHCHVCNCCVARYDQHCLWTGRCIGFGNHHYYIFFLFFLSMVCGWIIYGSFIYLSSHCATTFKEDGLWTYLNQIVACSPWVLYILMLATFHFSWSTFLLLNQLFQIAFLGLTSHERISLQKQSKHMKQTLSLRKTPYNLGFMQNLADFFQCGCFGLVKPCVVDWTSQYTMVFHPAREKVLRSV
B4: SLC16A10 (protein, UniProt Q8TF71 1-515)
chain: MVLSQEEPDSARGTSEAQPLGPAPTGAAPPPGPGPSDSPEAAVEKVEVELAGPATAEPHEPPEPPEGGWGWLVMLAAMWCNGSVFGIQNACGVLFVSMLETFGSKDDDKMVFKTAWVGSLSMGMIFFCCPIVSVFTDLFGCRKTAVVGAAVGFVGLMSSSFVSSIEPLYLTYGIIFACGCSFAYQPSLVILGHYFKKRLGLVNGIVTAGSSVFTILLPLLLRVLIDSVGLFYTLRVLCIFMFVLFLAGFTYRPLATSTKDKESGGSGSSLFSRKKFSPPKKIFNFAIFKVTAYAVWAVGIPLALFGYFVPYVHLMKHVNERFQDEKNKEVVLMCIGVTSGVGRLLFGRIADYVPGVKKVYLQVLSFFFIGLMSMMIPLCSIFGALIAVCLIMGLFDGCFISIMAPIAFELVGAQDVSQAIGFLLGFMSIPMTVGPPIAGLLRDKLGSYDVAFYLAGVPPLIGGAVLCFIPWIHSKKQREISKTTGKEKMEKMLENQNSLLSSSSGMFKKESDSII

What follows are binders tested against FlagBirA*-NRAS (human) (UniProt P01111) (assay: proximity labelling; BioID: FlagBirA*-RAS bait in Flp-In T-REx 293 cells, 1 µg/mL tetracycline and 50 µM biotin for 24 h; modified RIPA lysis, Streptavidin Sepharose capture, trypsin, LC-MS/MS; hits at SAINT score ≥ 0.75; labelling radius ~10 nm).

Row | binding | Binder
1 | binds | B1
2 | binds | B2
3 | binds | B3
4 | binds | B4

These are yes or no findings as the source states them, for the method shown. Binding seen in cells or lysates may run through a third protein. A yes stands for co-enrichment or nearness to the bait. Other partners may have been found.
